Laboratory results published in patent publication US9815839B2, “N-(1-(substituted-phenyl)ethyl)-9H-purin-6-amines as PI3K inhibitors” (Incyte Corporation, priority 2010, dated 2017).
The name of at least one read-out is uncertain.

Tested on: Pfeiffer cell line (diffuse large B cell lymphoma)
Experiment: Pfeiffer cell proliferation assay
Format: cell-based
Conditions: Pfeiffer cells, 3-4 days plus 12 hours [3H]-thymidine incorporation
Method: Example C: Pfeiffer Cell Proliferation Assay
Pfeiffer cell line (diffuse large B cell lymphoma) was purchased from ATCC (Manassas, Va.) and maintained in the culture medium recommended (RPMI and 10% FBS). To measure the anti-proliferation activity of the compounds, the Pfeiffer cells were plated with the culture medium (2×10^3 cells/well/per 200 μl) into 96-well ultra-low binding plates (Corning, Corning, N.Y.), in the presence or absence of a concentration range of test compounds. After 3-4 days, [^3H]-thymidine (1 μCi/well) (PerkinElmer, Boston, Mass.) in PBS was then added to the cell culture for an additional 12 hours before the incorporated radioactivity was separated by filtration with water through GF/B filters (Packard Bioscience, Meridenj, Conn.) and measured by liquid scintillation counting with a TopCount (Packard Bioscience).

With `Cc1nn(C)c(C)c1-c1c(C)c(Cl)cc(C(C)Nc2ncnc3[nH]cnc23)c1-c1cccc(F)c1` (stereo not shown) [Example 75, N-{1-[4-chloro-3′-fluoro-5-methyl-6-(1,3,5-trimethyl-1H-pyrazol-4-yl)biphenyl-2-yl]ethyl}-9H-purin-6-amine] the IC50 was 100 to 500 nM.
